Not every detail of the peptide structures is certain; ends, links or a residue may be inferred. Square brackets hold non-standard residues; d marks the D form. Peptide text beside a SMILES is read from it. * marks the point of attachment. FITC = O=C1OC2(c3ccc(O)cc3Oc3cc(O)ccc32)c2ccc(NC(=S)*)cc21; βAla = NCCC(=O)O
Assays:
Format in all cases: cell-based
[1] = test system: Primary human white blood cells (WBC); assay: flow cytometry of transporter content in leukocyte populations; conditions: 1 uM, 30 min at 37° C.
[2] = test system: WBC cell lines (white blood cell lines) and non-WBC cell lines; assay: uptake and exit in WBC cell lines and non-WBC cell lines; conditions: 10 μM
[3] = test system: U937 cells (lymphoma); assay: exit of FITC-labeled TAT derived transporter constructs

Compound	specificity for lymphocyte T [1]	targeting of human leukocyte populations [1]	uptake (internalization) and exit [2]	exit from cells ([3]; 500 nM)	HSPG dependency of exit ([3]; 10 μM)	exit from cells ([3]; 10 μM)
N=C(N)NCCC[C@@H](N)C(=O)N[C@H](CCCNC(=N)N)C(=O)N[C@H](CCCNC(=N)N)C(=O)N[C@H](CCC(N)=O)C(=O)N[C@H](CCCNC(=N)N)C(=O)N[C@H](CCCNC(=N)N)C(=O)N[C@H](CCCCN)C(=O)N[C@H](CCCCN)C(=O)N[C@H](CCCNC(=N)N)C(=O)O [D-TAT, rrrqrrkkr] (H-[dR][dR][dR][dQ][dR][dR][dK][dK][dR]-OH; N-terminus and C-terminus assumed)	bind more efficiently to lymphocyte T than the r3-L-TAT	binds to monocytes, neutrophils and lymphocyte T cells, and less efficiently to lymphocyte B cells				
N=C(N)NCCC[C@@H](NC(=O)[C@@H](CCCCN)NC(=O)[C@@H](CCCCN)NC(=O)[C@@H](CCCNC(=N)N)NC(=O)[C@@H](CCCNC(=N)N)NC(=O)[C@@H](CCC(N)=O)NC(=O)[C@@H](CCCNC(=N)N)NC(=O)[C@@H](CCCNC(=N)N)NC(=O)[C@@H](CCCNC(=N)N)NC(=O)CCNC(=S)Nc1ccc2c(c1)C(=O)OC21c2ccc(O)cc2Oc2cc(O)ccc21)C(=O)O [FITC-D-TAT, FITC-βA-rrrqrrkkr] ({FITC-βAla}-[dR][dR][dR][dQ][dR][dR][dK][dK][dR]-OH; C-terminus assumed)			observed	not observed	HSPG-dependent	observed

Reference: patent US20120142584A1, “NOVEL TRANSPORTER CONSTRUCTS AND TRANSPORTER CARGO CONJUGATE MOLECULES” (priority 2008, published 2012)
